Results are given in words; binding and its absence hold for the method and conditions named. In cells and extracts the contact can be indirect. Binding calls can cover weak binding; strength is not graded here.

This test concerns the target GST-Rab12(K71R) (mouse). As to the kind of experiment: pull-down; 20 μg GST, GST-Rab12 or GST-Rab12(K71R) on glutathione agarose beads, 18 h at 4 °C with 500 μg lysate of RBL cells transfected with T7-tagged RILP, RILP mutants, RILP-L1 or RILP-L2, 0.5 mM GTPγS; blot anti-T7 (Fig. 2b,c; Supplementary figure S3); only the target purified.

B1: T7-RILP (protein, UniProt Q5ND29 1-369)
chain: MEPRRAAPRLPSQASSSVGAGSAAELVYHLAGALGTELQGLARRFGPDAAAGLVPLVVRALELLEKAAVGPAPDSLQVSAQQAEVELRRLREENQRLRQELGSGPQEERALLRQLKEVTDRQRDELRAHNRDLQRRSQETEALQEQLQRLLLINSELRHKLAAVQTQLRAAQDRERERQIAQDGSSQLAKEQSLEPDAATSDDPVDTQKQPGNLPEAVQCGFSREELKQILQERNELKANVFLLKEELAYFQRELLTDHRVPGLLLEAMKVAVKKQRRKIKAKMLGTPEEAESSEDEDGSWLLLSNDKEDVPLVPESRIQNFFGLWYRGETEAPEAETSNPASSSLQKGEETPQQPHLQPVNSPPAPNS
As to B1, the binding entry is “binds”.

The values above are taken from article PMC8119438.
